Data taken from PMC3039673.
Results are given in words; binding and its absence hold for the method and conditions named. Binding seen in cells or lysates may run through a third protein. Some binding calls cover weakened binding; strength is not graded here. Each block holds one binder with its values, some of them ahead of it.

Columns and labels:
Test in all cases: co-IP; endogenous proteins; MDA-MB-231 cells preincubated 3 h with 50 uM MG132, induced or not with 2 ng/ml TGF-beta for 1 h; lysed in 150 mM co-IP buffer; IP with antibodies against Smad4, SNW1 or Ski, beads alone as negative control; Western blot
[1] = target: T1, SNW1 (human (endogenous in MDA-MB-231)), Q13573; settings: remark: other sources report otherwise
T1 chain: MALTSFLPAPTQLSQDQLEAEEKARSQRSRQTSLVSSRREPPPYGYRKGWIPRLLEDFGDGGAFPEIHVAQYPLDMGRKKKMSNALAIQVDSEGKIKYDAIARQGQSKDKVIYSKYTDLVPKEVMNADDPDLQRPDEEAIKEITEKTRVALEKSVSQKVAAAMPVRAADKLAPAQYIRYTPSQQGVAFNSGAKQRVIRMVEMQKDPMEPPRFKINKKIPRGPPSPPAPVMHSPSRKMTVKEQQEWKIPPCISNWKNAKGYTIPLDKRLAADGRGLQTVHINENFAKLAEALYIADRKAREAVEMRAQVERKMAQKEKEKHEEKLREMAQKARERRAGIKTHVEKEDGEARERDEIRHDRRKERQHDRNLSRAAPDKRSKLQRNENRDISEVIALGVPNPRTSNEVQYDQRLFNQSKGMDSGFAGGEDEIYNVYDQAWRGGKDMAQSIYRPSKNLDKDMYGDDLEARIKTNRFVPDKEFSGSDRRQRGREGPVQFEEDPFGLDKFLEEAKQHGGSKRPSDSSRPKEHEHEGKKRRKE

[2] = target: T2, Smad4 (human (endogenous in MDA-MB-231)), Q13485; settings: remark: other sources report otherwise
T2 chain: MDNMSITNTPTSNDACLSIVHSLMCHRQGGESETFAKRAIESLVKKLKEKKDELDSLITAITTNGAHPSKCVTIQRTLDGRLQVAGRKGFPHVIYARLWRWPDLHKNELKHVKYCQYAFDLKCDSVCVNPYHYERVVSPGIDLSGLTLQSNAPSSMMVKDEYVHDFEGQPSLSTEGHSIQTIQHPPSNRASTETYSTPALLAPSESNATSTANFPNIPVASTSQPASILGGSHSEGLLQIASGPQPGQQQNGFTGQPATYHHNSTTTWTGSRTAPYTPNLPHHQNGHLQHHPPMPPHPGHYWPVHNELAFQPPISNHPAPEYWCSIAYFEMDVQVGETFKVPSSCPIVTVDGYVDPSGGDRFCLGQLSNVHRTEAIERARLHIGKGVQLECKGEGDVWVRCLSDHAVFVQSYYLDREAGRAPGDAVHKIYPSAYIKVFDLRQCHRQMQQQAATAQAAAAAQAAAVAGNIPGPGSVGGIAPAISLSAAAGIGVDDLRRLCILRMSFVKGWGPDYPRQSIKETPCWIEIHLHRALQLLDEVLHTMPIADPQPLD

[3] = target: T3, SNW1 (human (endogenous in MDA-MB-231)) (UniProt Q13573)
T3 sequence: T1 chain

[4] = target: Smad4 (human (endogenous in MDA-MB-231)) (UniProt Q13485)
[5] = target: T4, Ski (human (endogenous in MDA-MB-231)) (UniProt P12755)
T4 sequence: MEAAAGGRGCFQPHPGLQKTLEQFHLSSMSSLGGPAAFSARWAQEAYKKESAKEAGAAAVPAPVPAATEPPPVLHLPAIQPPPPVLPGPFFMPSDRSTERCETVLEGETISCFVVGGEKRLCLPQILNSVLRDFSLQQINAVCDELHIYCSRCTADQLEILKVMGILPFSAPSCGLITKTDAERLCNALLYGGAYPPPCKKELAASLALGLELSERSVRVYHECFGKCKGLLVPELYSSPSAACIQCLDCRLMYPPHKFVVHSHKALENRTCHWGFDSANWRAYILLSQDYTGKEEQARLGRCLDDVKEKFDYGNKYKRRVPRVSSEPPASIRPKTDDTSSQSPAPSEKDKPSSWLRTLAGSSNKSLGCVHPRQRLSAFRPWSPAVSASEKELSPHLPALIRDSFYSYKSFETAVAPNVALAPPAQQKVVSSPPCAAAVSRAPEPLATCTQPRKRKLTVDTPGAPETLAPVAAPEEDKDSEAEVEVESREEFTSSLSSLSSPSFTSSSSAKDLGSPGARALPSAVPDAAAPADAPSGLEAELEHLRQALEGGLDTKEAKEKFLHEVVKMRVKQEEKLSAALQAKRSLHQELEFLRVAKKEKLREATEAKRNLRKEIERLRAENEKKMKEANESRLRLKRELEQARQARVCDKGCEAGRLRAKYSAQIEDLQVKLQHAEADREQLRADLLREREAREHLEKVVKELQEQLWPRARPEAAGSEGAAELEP

- binding [1]: no binding
- binding [2]: binds
B1: Smad3, P84022 1-425 (protein)
chain: MSSILPFTPPIVKRLLGWKKGEQNGQEEKWCEKAVKSLVKKLKKTGQLDELEKAITTQNVNTKCITIPRSLDGRLQVSHRKGLPHVIYCRLWRWPDLHSHHELRAMELCEFAFNMKKDEVCVNPYHYQRVETPVLPPVLVPRHTEIPAEFPPLDDYSHSIPENTNFPAGIEPQSNIPETPPPGYLSEDGETSDHQMNHSMDAGSPNLSPNPMSPAHNNLDLQPVTYCEPAFWCSISYYELNQRVGETFHASQPSMTVDGFTDPSNSERFCLGLLSNVNRNAAVELTRRHIGRGVRLYYIGGEVFAECLSDSAIFVQSPNCNQRYGWHPATVCKIPPGCNLKIFNNQEFAALLAQSVNQGFEAVYQLTRMCTIRMSFVKGWGAEYRRQTVTSTPCWIELHLNGPLQWLDKVLTQMGSPSIRCSSVS

- binding [1]: no binding
- binding [2]: binds
B2: Smad2, Q15796 1-467 (protein)
chain: MSSILPFTPPVVKRLLGWKKSAGGSGGAGGGEQNGQEEKWCEKAVKSLVKKLKKTGRLDELEKAITTQNCNTKCVTIPSTCSEIWGLSTPNTIDQWDTTGLYSFSEQTRSLDGRLQVSHRKGLPHVIYCRLWRWPDLHSHHELKAIENCEYAFNLKKDEVCVNPYHYQRVETPVLPPVLVPRHTEILTELPPLDDYTHSIPENTNFPAGIEPQSNYIPETPPPGYISEDGETSDQQLNQSMDTGSPAELSPTTLSPVNHSLDLQPVTYSEPAFWCSIAYYELNQRVGETFHASQPSLTVDGFTDPSNSERFCLGLLSNVNRNATVEMTRRHIGRGVRLYYIGGEVFAECLSDSAIFVQSPNCNQRYGWHPATVCKIPPGCNLKIFNNQEFAALLAQSVNQGFEAVYQLTRMCTIRMSFVKGWGAEYRRQTVTSTPCWIELHLNGPLQWLDKVLTQMGSPSVRCSSMS

- binding [1]: no binding
- binding [2]: binds
B3: p-Smad2, Q15796 1-467 (protein)
chain: B2 chain
modifications: here or on the partner: phosphorylated (p-Smad2; sites not given)

- binding [3]: no binding
- binding [4]: binds
B4: Ski (protein, UniProt P12755 1-728)
chain: T4 sequence

- binding [5]: no binding
- binding [4]: no binding
B5: SNW1 (protein, UniProt Q13573 1-536)
chain: T1 chain
